Experimental findings from the supplement of paper PMC12889115 are described below.

SMILES strings stand for the structures. The list shows a part of the results. Values are raw readings; no control value is given beside them.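 In the initial screen, polymyxin B was used at a concentration that permeabilizes Salmonella's outer membrane but not its inner membrane. Maximum growth was set by DMSO wells with or without polymyxin B. Since plates varied, data were ranked per plate, and compounds giving the lowest OD600 advanced as hits.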

This assay deals with Salmonella enterica serovar Typhimurium SL1344. The assay is described as follows: bacterial growth OD600 after 18 h with compound and polymyxin B; higher = more bacterial growth (less inhibition). The note with it: 50 µM, Mueller-Hinton broth.

With `O=C(CCC1(Cc2cccs2)CCC(=O)N1)NCc1nc(-c2ccccc2)cs1` (stereo unspecified), the “bacterial growth OD600” value (polymyxin B 0.75 µg/mL) is 0.862.

As to `CC(C)(CO)CNC(=O)C1CCC(=O)N(CCc2cccc(F)c2)C1` (stereo unspecified), the “bacterial growth OD600” value (polymyxin B 1 µg/mL) turned out to be 1. For the compound `COc1cccc(-c2cc3c(c(OC)c2)OCCN(Cc2ccc(C)cc2)C3)n1`, the “bacterial growth OD600” value (polymyxin B 0.75 µg/mL) was 0.898. For the compound `COC(=O)c1ccccc1C(=O)N1CCCC(N(C)Cc2ccccc2)C1` (stereo unspecified), the “bacterial growth OD600” value (polymyxin B 1 µg/mL) worked out at 0.989. Take `OCC1CCN(c2nncc(-c3ccc(Cl)cc3)n2)CC1`: under “polymyxin B 0.75 µg/mL”, the “bacterial growth OD600” value amounted to 0.592.

Turning to `COc1ccc(CN2CCN(Cc3cccc(OC)c3OC)CC2CCO)c(C)c1C` (stereo unspecified), where the note is “polymyxin B 1 µg/mL”, the “bacterial growth OD600” value is 1.01. On to `CCC(=O)N[C@@H]1c2ccccc2C2(CCN(C(=O)c3cc(C)ccc3C)CC2)[C@H]1OCc1cccnc1`, for which, under “polymyxin B 0.75 µg/mL”, the “bacterial growth OD600” value is 0.688. As for `Cc1nc2ccccc2n1Cc1cc(C(=O)N2CCSCC2)n[nH]1`, the “bacterial growth OD600” value (polymyxin B 1 µg/mL) amounted to 0.949. In the case of `O=C(NCc1ccccn1)c1cccc(OC2CCN(C(=O)c3cscn3)CC2)c1`, the “bacterial growth OD600” value (polymyxin B 1 µg/mL) came to 0.921. Take `Cn1cc(CN2CCC(C(N)=O)CC2)c(-c2ccc(C3CCCCC3)cc2)n1`: the “bacterial growth OD600” value (polymyxin B 1 µg/mL) worked out at 0.811.

As for `CCOC(=O)CNC(=O)N1CCCC(C(=O)c2ccc3cc(OC)ccc3c2)C1` (stereo unspecified), the “bacterial growth OD600” value (polymyxin B 1 µg/mL) was 0.766.

For the compound `COCc1ccc(C(=O)Nc2ccc(-c3nc(CNC(=O)C4CCCCC4)c(C)o3)cc2)o1`, the “bacterial growth OD600” value (polymyxin B 0.75 µg/mL) stood at 0.657. In the case of `CCc1[nH]c2c(CNC(=O)CCn3cncn3)cc(C)cc2c1C`, the “bacterial growth OD600” value (polymyxin B 1 µg/mL) amounted to 0.919. Still for that read-out and setting: under `COc1ccc(-n2ccnc2CNC2CCCN(c3ncccn3)C2)cc1` (stereo unspecified) stands 1.03.

Take `Cc1ccc(-c2cccc(CN3CCC4(CCCN(C)C4=O)C3)c2)o1` (stereo unspecified): for the setting “polymyxin B 0.75 µg/mL”, the “bacterial growth OD600” value amounted to 0.98. `CCOC(=O)C1(CCCc2ccccc2)CCN(C(=O)c2cccnc2C)CC1`: the “bacterial growth OD600” value (polymyxin B 1 µg/mL) was 0.783. As to `CCN1CCN(C2(C(=O)NCc3cccc4[nH]ccc34)Cc3ccccc3C2)CC1`, the “bacterial growth OD600” value (polymyxin B 0.75 µg/mL) amounted to 0.859. For `COc1ccccc1CCc1nnc(CCC(=O)NCCSC)o1`, the “bacterial growth OD600” value (polymyxin B 1 µg/mL) amounted to 0.852.

As for `CCc1ocnc1C(=O)NC1CC(=O)N(CCCc2ccccc2)C1` (stereo unspecified), under “polymyxin B 1 µg/mL”, the “bacterial growth OD600” value was 1.01. The same measure, in the same setting: to `CC(C)Cc1noc(-c2ccc(N3CCCOCC3)nc2)n1` belongs 0.916. With `CC(C)N1CCC(N2CCCC(C(=O)NC3CCCCC3)C2)CC1` (stereo unspecified), for the setting “polymyxin B 0.75 µg/mL”, the “bacterial growth OD600” value was 0.96.
